Experimental findings from patent US20220213209A1 are described below.

No constants are given. Whether binding was seen depends on the method and setting. Some entries that bind do so weakly or less than the wild type.

This experiment has as its target macaca mulatta GITR (Macaca mulatta) (UniProt F7DDV8). Kind of experiment: BLI OctetRed 96.

B1: BCD166-01-014 (antibody, human IgG1, lambda, V domains shown)
VH: QVQLVQSGGGLVQPGGSLRLSCAASGFTFSYYWMYWVRQAPGKGLEWVSAISWNGGRTYYAESMKGRFTISRDNAQNTLYLQMNSLKSEDTAVYYCAKNRYYSDPNYGMNLWGKGTTVTVSS
VL: QSALTQPASVSGSPGQSITISCTGTSTDIGTYKYISWYQQHPGKAPKLIIYGVSHRPSGVSDRFSGSKSDNTASLTISGLQAEDEADYYCSSYTSSGTVVFGGGTKVTVLG
Regarding B1, the binding entry is recorded as “binds”.
